This experiment deals with CP43 with C-terminal twin-strep-tag (PsbC-TS) (T. elongatus) (UniProt Q8DIF8). The experiment can be described thus: affinity purification with mass spectrometry.

No constants are given. Whether binding was seen depends on the method and setting. In cells and extracts the contact can be indirect. These calls come from enrichment with a bait or labelling near it, and not all partners need be listed.

B1: Psb34 (tsl0063) (protein, UniProt Q8DMP8 1-56)
chain: MRYTTDEGGRLNNFAIEPKVYQAQPWTPQQKVRAALLVGGGLLLVAGLVAIAVGVS
Take B1: the binding entry is listed as “binds”.

Source of the values: paper doi:10.1101/2020.09.14.294884 (bioRxiv, 2020).
